From article PMC10192418, “High-affinity peptides developed against calprotectin and their application as synthetic ligands in diagnostic assays” (Nature Communications, 2023) come the findings set out here.

No constants are given. Whether binding was seen depends on the method and setting. For part of these data: Sequences can lack the tags named with a protein.

For experiment [1], the target named is T1, B-RCAL (BÜHLMANN recombinant calprotectin; His6-linker-S100A9-linker-S100A8) (human).
T1 sequence: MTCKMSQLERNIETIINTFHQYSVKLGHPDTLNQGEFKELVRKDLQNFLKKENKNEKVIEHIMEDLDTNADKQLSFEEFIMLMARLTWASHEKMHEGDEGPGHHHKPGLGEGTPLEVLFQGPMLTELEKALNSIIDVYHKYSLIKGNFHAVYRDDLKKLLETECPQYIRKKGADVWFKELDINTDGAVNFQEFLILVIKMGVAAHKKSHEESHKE
Kind of experiment: fluorescence polarisation; as the FP assay but CaCl2 in the dilution buffer replaced with 1 mM EDTA; calprotectin dimer; both purified. A general note: Fluorescence polarisation rises when a labelled molecule tumbles more slowly, as on binding a larger partner.

The target in experiment [2] is T2, native calprotectin derived from granulocytes (human) (UniProt P05109+P06702).
T2 sequence 1: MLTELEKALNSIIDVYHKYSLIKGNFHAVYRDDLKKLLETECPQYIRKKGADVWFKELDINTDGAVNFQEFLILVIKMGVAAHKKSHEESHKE
T2 sequence 2: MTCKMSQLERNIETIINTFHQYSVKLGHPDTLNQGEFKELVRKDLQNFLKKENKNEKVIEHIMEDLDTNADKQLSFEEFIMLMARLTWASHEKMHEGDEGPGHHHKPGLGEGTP
Described as above.

In experiment [3] the target is T1, B-RCAL (BÜHLMANN recombinant calprotectin; His6-linker-S100A9-linker-S100A8) (human). Kind of experiment: dynamic light scattering + other: mass photometry; B-RCAL in 20 mM HEPES, 100 mM NaCl, pH 7.5 with 10 mM EDTA, 1 h at room temperature; dimer = one B-RCAL fusion chain; both purified.

B1: linear peptide 3 (peptide)
peptide: RSPESVAFPMFQSHWYSG
modifications: 5(6)-carboxyfluorescein on the N-terminus
On to B1, for which the binding result in experiment [1] and in experiment [2] was “no binding (condition: with 1 mM EDTA)” throughout.

B2: B-RCAL (BÜHLMANN recombinant calprotectin; His6-linker-S100A9-linker-S100A8) (complex)
chain: T1 sequence
Regarding B2, the binding result in experiment [3] is “no binding (condition: with 10 mM EDTA)”.
